Results deposited as PubChem BioAssay AID686938 (Drosophila RNAi Screening Center, 2013)

Test: 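Looking for CRAC channel components and the factors controlling them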 (primary screen)
System: Drosophila S2R+ cells
Reagents: long dsRNA against Drosophila genes, about 0.25 µg dsRNA per well, roughly 10,000 cells
Duration: 5 days of knock-down before the calcium assay
Conditions: thapsigargin (SERCA pump blocker) to empty calcium stores; entry signal taken 4 min after adding it
Read-out: 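Per-well fluo-4 fluorescence in two replicates, unnormalised, measured in resting cells and 4 min after store depletion by the SERCA blocker thapsigargin; ratio of the two present in few wells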
Reading the numbers: calcium entry signal: higher = stronger calcium signal after store depletion; resting calcium signal: higher = higher resting calcium signal
Units: calcium entry signal in fluorescence units; resting calcium signal in fluorescence units
Rule for the call: 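Hit if the duplicate-averaged plate z-score for entry over resting signal is under −3; wells with weak total dye signal (Fmax z < −2) or more than 5 off-targets removed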
Meaning of the calls: active = strongly reduced calcium entry; inactive = no strong reduction
The deposit covers about 23,000 reagents; shown is an unselected part of those that have a named target and a result. Over the whole deposit, 75 (0.33%) are marked active. 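Raw plate signals without normalisation; calls rest on plate z-scores that were not deposited; ratio present for only 364 wells.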 The numbers tell different reagents against one gene apart. Names joined by + are all predicted targets of the reagent. Not stated in the record: the dose of the treatment.

Gene	reagent no.	calcium entry signal, replicate 1	calcium entry signal, replicate 2	resting calcium signal, replicate 1	resting calcium signal, replicate 2	Outcome
CG32563	1	3.98e7	2.97e7	2.10e7	1.36e7	inactive
ced-6	1	4.50e7	3.13e7	2.27e7	1.61e7	inactive
Pabp2	1	2.42e7	4.57e7	1.71e7	2.04e7	active
bic	1	2.41e7	3.30e7	1.34e7	1.89e7	inactive
Ripalpha	1	2.36e7	3.83e7	1.18e7	1.63e7	inactive
lz	1	3.78e7	4.88e7	1.80e7	2.69e7	inactive
lz	2	2.96e7	4.00e7	1.47e7	2.24e7	inactive
CG3909	1	1.87e7	2.39e7	1.15e7	1.31e7	inactive
shop	1	3.51e7	4.08e7	1.68e7	1.75e7	inactive
scramb2	1	3.85e7	3.83e7	2.01e7	1.83e7	inactive
plum	1	2.49e7	3.08e7	1.19e7	1.48e7	inactive
CG32240	1	4.05e7	4.42e7	2.19e7	2.13e7	inactive
CG42565	1	3.75e7	3.34e7	1.83e7	1.57e7	inactive
CG9119	1	2.63e7	2.06e7	1.16e7	1.10e7	inactive
lncRNA:roX1	1	2.76e7	4.02e7	1.37e7	1.99e7	inactive
Cep290	1	3.69e7	4.08e7	1.90e7	1.87e7	inactive
CG6712	1	3.63e7	5.38e7	1.79e7	2.47e7	inactive
CG6712	2	2.81e7	2.03e7	1.67e7	1.18e7	inactive
CG42615	1	1.81e7	3.08e7	9.64e6	1.34e7	inactive
CG30116	1	3.51e7	3.68e7	1.69e7	1.83e7	inactive
CG30116	2	5.28e7	4.89e7	2.16e7	2.22e7	inactive
CG31406	1	2.83e7	4.42e7	1.47e7	2.24e7	inactive
Pif1A	1	3.16e7	4.60e7	1.59e7	2.28e7	inactive
Pif1A	2	5.11e7	3.83e7	2.50e7	1.94e7	inactive
kappaB-Ras + CG30503	1	4.82e7	4.33e7	2.19e7	1.90e7	inactive
kappaB-Ras + CG30503	2	4.51e7	4.29e7	2.19e7	1.99e7	inactive
CG14125	1	3.23e7	3.76e7	1.62e7	1.80e7	inactive
Ir94b	1	3.89e7	3.12e7	2.06e7	1.45e7	inactive
DCP2	1	3.85e7	2.87e7	1.84e7	1.46e7	inactive
DCP2	2	4.22e7	4.91e7	2.24e7	3.65e7	inactive
CG4020	1	4.08e7	5.09e7	1.97e7	2.29e7	inactive
Or22a	1	3.84e7	5.83e7	1.89e7	2.26e7	inactive
Scp2	1	3.26e7	2.75e7	1.89e7	1.38e7	inactive
Scp2	2	2.26e7	3.02e7	1.13e7	4.98e7	inactive
CG15432	1	2.46e7	2.35e7	1.30e7	1.13e7	inactive
Hecw	1	3.88e7	5.53e7	1.92e7	2.54e7	inactive
Hecw	2	3.83e7	5.91e7	1.94e7	2.74e7	inactive
Taf4	1	2.47e7	2.05e7	2.14e7	1.11e7	inactive
Obp56i	1	2.12e7	4.73e7	1.13e7	2.06e7	inactive
CG10139	1	3.82e7	4.40e7	1.71e7	1.86e7	inactive

Ordered by “resting calcium signal, replicate 2” (highest first): 3 of the entries above
Gene	reagent no.	calcium entry signal, replicate 1	calcium entry signal, replicate 2	resting calcium signal, replicate 1	resting calcium signal, replicate 2	Outcome
Scp2	2	2.26e7	3.02e7	1.13e7	4.98e7	inactive
Or22a	1	3.84e7	5.83e7	1.89e7	2.26e7	inactive
Scp2	1	3.26e7	2.75e7	1.89e7	1.38e7	inactive
